In US7973061B2, “Anaplastic lymphoma kinase modulators and methods of use” (Exelixis, Inc., priority 2004, dated 2011):
Structures were worked out from names or drawings and are uncertain.

Amino acid sequences for entries named in this document (tags omitted). Residues count along the entry.
UniProt Q9UM73, 1098-1410 limits assumed: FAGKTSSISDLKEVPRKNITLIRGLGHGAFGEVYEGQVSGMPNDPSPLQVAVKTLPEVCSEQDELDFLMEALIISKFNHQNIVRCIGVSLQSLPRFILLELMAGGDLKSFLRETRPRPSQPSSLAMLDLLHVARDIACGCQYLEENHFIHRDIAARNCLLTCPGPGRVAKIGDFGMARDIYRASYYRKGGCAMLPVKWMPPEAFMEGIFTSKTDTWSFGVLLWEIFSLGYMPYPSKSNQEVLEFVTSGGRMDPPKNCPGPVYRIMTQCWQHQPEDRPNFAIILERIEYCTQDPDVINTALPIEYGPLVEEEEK

Target: ALK (baculovirus expressed human ALK kinase domain F1098-K1410) (Homo sapiens, UniProt Q9UM73)
Conditions: read-out: ALK IC50; 1 μM ATP, 4 μM poly-AEKY, 12 nM ALK, 2 hours at ambient temperature

CCc1ccc(CCNC(=O)c2csc(CNC(=O)COc3ccc(OC(F)(F)F)cc3)n2)cc1
IC50: < 50 nM
